Measured values: patent US20260232713A1, “PLECOMACROLIDE DERIVATIVES FOR MHC-I NEF DOWNMODULATION” (priority 2022, published 2026)

System: V-ATPase
Assay: Lysosomal acidification (Lysotracker mean fluorescence intensity) as indicator of V-ATPase activity in primary CD4+ T cells
Assay type: cell-based, human
Conditions: ratio V-ATPase (Lysotracker) IC50 to Nef IC50

Row | SMILES | Lys:Nef (neutralization window, fold-change between Nef and V-ATPase IC50s) [fold]
1 | CCCCCCCCC(=O)O[C@@H]1C[C@](O)([C@@H](C)[C@H](O)[C@H](C)[C@H]2OC(=O)/C(OC)=C/C(C)=C/[C@@H](C)[C@@H](O)[C@@H](C)C/C(C)=C/C=C/[C@@H]2OC)O[C@H](C(C)C)[C@H]1C [Compound S11] | 1.2
2 | CO/C1=C\C(C)=C\[C@@H](C)[C@@H](O)[C@@H](C)C/C(C)=C/C=C/[C@H](OC)[C@@H]([C@@H](C)[C@@H](O)[C@H](C)[C@H]2C[C@@H](OC)[C@H](C)[C@@H](C(C)C)O2)OC1=O [Compound S6] | 2.7
3 | C/C=C/[C@H]1O[C@@](O)([C@@H](C)[C@H](O)[C@H](C)[C@H]2OC(=O)/C(OC)=C/C(C)=C/[C@@H](C)[C@@H](O)[C@@H](CC)[C@@H](O)[C@H](C)C/C(C)=C/C=C/[C@@H]2OC)C[C@@H](OC(C)=O)[C@@H]1C [Compound S50, 23-Acetyl CMF] | 5.6
4 | CO/C1=C\C(C)=C\[C@@H](C)[C@@H](OC(C)=O)[C@@H](C)C/C(C)=C/C=C/[C@H](OC)[C@@H]([C@@H](C)[C@@H](O)[C@H](C)[C@@]2(O)C[C@@H](OC(C)=O)[C@H](C)C(C(C)C)O2)OC1=O (stereo partly shown) [Compound S19] | 2.2
5 | CO/C1=C\C(C)=C\[C@@H](C)[C@@H](O)[C@@H](C)C/C(C)=C/C=C/[C@H](OC)[C@@H]([C@@H](C)[C@@H](O)[C@H](C)[C@@]2(OC)C[C@@H](O)[C@H](C)C(C(C)C)O2)OC1=O (stereo partly shown) [Compound S4, Bafilomycin A2] | 2.3
6 | C/C=C/[C@H]1O[C@@](O)([C@@H](C)[C@H](O)[C@H](C)[C@H]2OC(=O)/C(OC)=C/C(C)=C/[C@@H](C)[C@@H](O)[C@@H](CC)[C@@H](OC(C)=O)[C@H](C)C/C(C)=C/C=C/[C@@H]2OC)C[C@@H](O[C@@H]2C[C@H](OC(C)=O)[C@@H](OC(C)=O)[C@H](C)O2)[C@@H]1C [Compound S49, 3′,4′,9-triaceyl CMC] | 3.6
7 | C[C@@H]1C[C@H](C)C[C@H](C)[C@@H](O)CC(=O)O[C@H]([C@@H]2CCC[C@H]2C(=O)O)C/C=C/C=C(/C#N)[C@H](O)[C@@H](C)C1 [Compound S2, Borrelidin, reference compound] | 1.5
8 | C=C/C=C/C(=O)O[C@@H]1C[C@](O)([C@@H](C)[C@H](O)[C@H](C)[C@H]2OC(=O)/C(OC)=C/C(C)=C/[C@@H](C)[C@@H](O)[C@@H](C)C/C(C)=C/C=C/[C@@H]2OC)O[C@H](C(C)C)[C@H]1C [Compound S12] | 1.5
9 | CO/C1=C\C(C)=C\[C@@H](C)[C@@H](O)[C@@H](C)C/C(C)=C/C=C/[C@H](OC)[C@@H]([C@@H](C)[C@@H](O)[C@H](C)[C@@]2(O)C[C@@H](OC=O)[C@H](C)[C@@H](C(C)C)O2)OC1=O [Compound S61] | 3.6
10 | C/C=C/[C@H]1O[C@@](O)([C@@H](C)[C@H](O)[C@H](C)[C@H]2OC(=O)/C(OC)=C/C(C)=C/[C@@H](C)[C@@H](O)[C@@H](CC)[C@@H](O)[C@H](C)C/C(C)=C/C=C/[C@@H]2OC)C[C@@H](O[C@@H]2C[C@H](OC(C)=O)[C@@H](OC(N)=O)[C@H](C)O2)[C@@H]1C [Compound 14, 3′-Acetyl CMA] | 19
11 | C/C=C/[C@H]1O[C@@](O)([C@@H](C)[C@H](O)[C@H](C)[C@H]2OC(=O)/C(OC)=C/C(C)=C/[C@@H](C)[C@@H](O)[C@@H](CC)[C@@H](O)[C@H](C)C/C(C)=C/C=C/[C@@H]2OC)C[C@@H](O[C@@H]2C[C@H](OC(C)=O)[C@@H](OC(C)=O)[C@H](C)O2)[C@@H]1C [Compound S48, 3′,4-diacetyl CMC] | 4.2
12 | C#CCCC(=O)O[C@@H]1C[C@H]([C@@H](C)[C@H](O)[C@H](C)[C@H]2OC(=O)/C(OC)=C/C(C)=C/[C@@H](C)[C@@H](O)[C@@H](C)C/C(C)=C/C=C/[C@@H]2OC)O[C@H](C(C)C)[C@H]1C [Compound S28] | 2.8
13 | C/C=C/CC(=O)O[C@@H]1C[C@](O)([C@@H](C)[C@H](O)[C@H](C)[C@H]2OC(=O)/C(OC)=C/C(C)=C/[C@@H](C)[C@@H](O)[C@@H](C)C/C(C)=C/C=C/[C@@H]2OC)OC(C(C)C)[C@H]1C (stereo partly shown) [Compound S29] | 2.0
14 | C/C=C/[C@H]1O[C@@H]([C@@H](C)[C@H](O)[C@H](C)[C@H]2OC(=O)/C(OC)=C/C(C)=C/[C@@H](C)[C@@H](O)[C@@H](CC)[C@@H](O)[C@H](C)C/C(C)=C/C=C/[C@@H]2OC)C[C@@H](O[C@@H]2C[C@H](O)[C@@H](O)[C@H](C)O2)[C@@H]1C [Compound S62, 21-Deoxy CMC] | 4.2
15 | CC[C@H]1OC(=O)[C@H](C)[C@@H](O)[C@@H](C)C[C@@H](C)C(=O)/C=C/[C@H]1C [10-deoxymethynolide, reference compound] | 4.8
16 | C/C=C/[C@H]1O[C@@](O)([C@@H](C)[C@H](O)[C@H](C)[C@H]2OC(=O)/C(OC)=C/C(C)=C/[C@@H](C)[C@@H](O)[C@@H](C)[C@@H](O)[C@H](C)C/C(C)=C/C=C/[C@@H]2OC)C[C@@H](O[C@@H]2C[C@H](OC(C)=O)[C@@H](OC(N)=O)[C@H](C)O2)[C@@H]1C [Compound 12, 3′-Acetyl Concanamycin B] | 21
